This passage reports cell number change and AC50 results from PubChem BioAssay AID2685 (National Center for Advancing Translational Sciences (NCATS), 2010).

Molecules are shown by their SMILES. The list shows a part of the results. The main result of the screen is listed elsewhere. These columns were measured beside it and carry no call. Compounds called inactive in the main read-out are mostly missing here. Potencies come from curve fits of mixed quality, noted in brackets.

The AC50 is the concentration at which the activity in the assay is half-maximal. Read a high AC50 as weaker potency.

The test can be described thus: qHTS Assay for Lipid Storage Modulators in Drosophila S3 Cells.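 For cell number change: cells counted by Cell Tracker Red CMTPX staining in the red channel.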 As to conditions: BODIPY lipid droplet fluorescence, 18-24 h; for cell number change: measured here: cell count max response, cells fed with added oleic acid. An outline of the steps:
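Drosophila S3 cells got compounds at several concentrations plus oleic acid (400 uM solution). Laser-scanning cytometry with 488 nm excitation read lipid droplets at 500-530 nm and cells at 575-640 nm. Percent activity was relative to 20 uM Triacsin C.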

Where [1] appears, read: measured here: cell number channel AC50, cells fed with added oleic acid.
Where [2] appears, read: measured here: lipid fluorescence (Fed channel) AC50, cells fed with added oleic acid.

For the compound `Cc1ccc2c(c1)c(C)c(C)n2CC(O)CN1CCCCC1C` (stereo not drawn), the cell number change was -33.7%. Besides, the AC50 under setting [1] is 0.0058 µM [falling, full curve, poor fit]. Under setting [2], the AC50 was 5.8 µM [falling, full curve].

Turning to `Cc1nc2nc[nH]n2c(=O)c1C/C=C/c1ccccc1`, the cell number change worked out at 8.02%.

With `O=C(NC(=S)Nc1cc(Cl)ccc1N1CCOCC1)c1ccccc1[N+](=O)[O-]`, the cell number change is -57.4%. Besides, the AC50 under setting [1] was 10.3 µM [falling, partial curve, poor fit]. For the same compound, under setting [2], the AC50 is 29.1 µM [falling, single point].

Regarding `C/C(CC(=O)Nc1ccc2ccccc2c1)=N\NC(=O)c1cnccn1`, the cell number change worked out at 2.91%. Moreover, the concentration at half-maximal activity (AC50) under setting [2] is 13 µM [rising, partial curve, poor fit].

Turning to `Cc1cccc2cc(CN(Cc3ccccc3)C(=O)N(C)C)c(=O)[nH]c12`, the cell number change was 20.7%. The AC50 under setting [2] is 1.84 µM [rising, partial curve].

For the compound `CNC(=S)N1CCN(c2c(F)cc3c(=O)c(C(=O)O)cn(C4CC4)c3c2OC)CC1C` (stereo not drawn), the cell number change was -33.9%. In addition, the AC50 under setting [1] is 7.31 µM [falling, partial curve]. Besides, the AC50 under setting [2] is 16.4 µM [falling, single point].

Regarding `CCCCNC(=S)N1CCN(CC)CC1`, the cell number change was 2.08%. For the same compound, the AC50 under setting [2] is 0.103 µM [falling, full curve, poor fit].

Consider `COc1cccc(N(CC(=O)NC2CCCCCC2)S(=O)(=O)c2ccccc2)c1`, for which the cell number change was found to be 12.9%. Besides, the AC50 under setting [1] was 6.51 µM [rising, single point].

Take `O=C(NCc1cccc(Cl)c1)c1cccc(S(=O)(=O)N2CCCCC2)c1`: the cell number change is -6.14%. Under setting [1], the AC50 is 0.116 µM [falling, full curve, poor fit]. Under setting [2], the AC50 was 0.103 µM [falling, full curve, poor fit].

Consider `COc1ccc(NC(=O)N2CCN(S(=O)(=O)c3ccc(F)cc3)CC2)c(OC)c1`, for which the cell number change is 7.23%. Moreover, the AC50 under setting [2] was 2.91 µM [rising, single point].

For the compound `COc1ccc(C)cc1NC(=O)C(Sc1nnc(Nc2cc(C)ccc2OC)s1)c1ccccc1` (stereo not drawn), the cell number change amounted to 22.9%. Also, under setting [2], the AC50 was 2.06 µM [rising, partial curve].

For `Cc1ccc(C)c(N2CCN(c3ncccc3[N+](=O)[O-])CC2)c1`, the cell number change was -26.3%. Under setting [2], the AC50 was 5.17 µM [falling, partial curve].

For `CC(=O)N(Cc1cc(=O)[nH]c2ccccc12)c1cccc(C)c1`, the cell number change amounted to 5.48%. In addition, the AC50 under setting [2] is 6.51 µM [rising, single point].

Turning to `CCOC(=O)N1CCC(N2CCCC(C(=O)c3cc(C)c(OC)c(C)c3)C2)CC1` (stereo not drawn), the cell number change turned out to be 28.3%. In addition, the AC50 under setting [2] is 2.31 µM [falling, single point].

As for `CCC(C)c1ccc(OCC(=O)Nc2ccc(CN3CCOCC3)cc2)cc1` (stereo not drawn), the cell number change was -20.1%. Also, under setting [2], the AC50 was 29.1 µM [rising, single point].

As to `CN(C)S(=O)(=O)c1ccc2c(c1)nc1n2CCC1`, the cell number change is -29.8%. Besides, the AC50 under setting [2] is 0.00731 µM [falling, full curve, poor fit].

Regarding `C/C(=N\O)C(C)(C)Nc1cccc(F)c1`, the cell number change is -14.5%. Besides, the AC50 under setting [2] was 5.17 µM [falling, full curve, poor fit].

For the compound `NC(=O)Cn1cc(C(=O)c2cccs2)c2ccccc21`, the cell number change was -15.4%. The AC50 under setting [2] is 20.6 µM [rising, single point].

Consider `CCC(Sc1ccc2nnc(-c3cccnc3)n2n1)C(=O)O` (stereo not drawn), for which the cell number change is -129%. The AC50 under setting [1] is 18.4 µM [falling, partial curve]. The AC50 under setting [2] was 18.4 µM [falling, partial curve].

For the compound `COc1ccc(-c2sc(Nc3ccccc3)n[n+]2-c2ccccc2)cc1Br`, the cell number change came to 62.5%. Further, the AC50 under setting [1] was 16.4 µM [rising, partial curve]. Also, the AC50 under setting [2] was 18.4 µM [rising, single point].

Regarding `COc1cc(C(=O)NC(=S)NC(C)C)cc(OC)c1OC`, the cell number change was 27.1%. Also, the AC50 under setting [2] is 0.92 µM [rising, partial curve].

For the compound `CN(Cc1ccccc1)C(=O)CSc1n[nH]c(N)n1`, the cell number change stood at 4.17%. The AC50 under setting [1] was 0.0291 µM [falling, full curve, poor fit]. For the same compound, the AC50 under setting [2] is 29.1 µM [rising, single point].

For the compound `CCC(=O)N1c2ccc(S(=O)(=O)CCC(=O)N3CCN(c4ccccc4F)CC3)cc2CC1C` (stereo not drawn), the cell number change was found to be 11%.

`Cc1ccc(C(=O)N/C(=C/c2cccs2)C(=O)NCC2CCCO2)cc1` (stereo not drawn): the cell number change was determined as 9.63%. Also, the AC50 under setting [1] is 6.51 µM [falling, single point]. Further, the AC50 under setting [2] was 6.51 µM [falling, partial curve].

Take `O=S(=O)(NCC1CCCO1)c1cc(Br)c(Br)s1` (stereo not drawn): the cell number change is 132%. Further, the AC50 under setting [1] is 16.4 µM [rising, partial curve]. Moreover, the AC50 under setting [2] was 16.4 µM [rising, partial curve].

Regarding `CCOC(=O)c1sc(=NC(=O)c2ccc(Cl)s2)n(C)c1C`, the cell number change is -5.23%.

`O=C(CSc1nnc(C2CCCCC2)n1-c1ccccc1)NCc1ccco1`: the cell number change was -38.1%. Moreover, under setting [1], the AC50 was 18.4 µM [falling, partial curve].

Turning to `CCOC(=O)c1ccc(NC(=O)NC2CCN(CC(=O)NCc3ccc4c(c3)OCO4)CC2)cc1`, the cell number change was determined as 22.8%. Further, the AC50 under setting [2] is 0.517 µM [rising, single point].

Regarding `CCCC(=O)O[C@H]1C[C@@H](C)N(C(=O)c2ccccc2)c2ccc(C)cc21`, the cell number change was -35.2%. For the same compound, the AC50 under setting [1] is 18.4 µM [falling, single point]. Besides, under setting [2], the AC50 is 20.6 µM [falling, single point].

As for `COc1ccccc1N1CCN(C(=O)c2ccc(Br)s2)CC1`, the cell number change was determined as 53.1%. The AC50 under setting [1] was 29.1 µM [rising, single point].

As to `Cc1ccc(COc2ccc(-c3nnco3)cc2)cc1`, the cell number change is -6.65%. In addition, the AC50 under setting [2] is 0.103 µM [falling, full curve].

Regarding `Cc1[nH]n(-c2ccccc2)c(=O)c1C=Nc1ccc(S(=O)(=O)NC(N)=O)cc1`, the cell number change is -0.679%.

Turning to `CCOCCCNCc1ccc(OCc2ccccc2Cl)cc1`, the cell number change came to 11%. For the same compound, under setting [1], the AC50 is 0.00461 µM [rising, full curve, poor fit]. Moreover, under setting [2], the half-maximal activity concentration (AC50) is 6.51 µM [rising, partial curve, poor fit].

`Cc1cc(C)n(-c2nnc(C)n2/N=C/c2cc(Br)ccc2OCc2ccccc2)n1`: the cell number change is -15.8%. Moreover, the AC50 under setting [2] was 4.11 µM [rising, partial curve, poor fit].

In the case of `Cc1cc(/C=C(\C#N)C(=O)O)c(C)n1CC1CCCO1` (stereo not drawn), the cell number change was -33.1%. Also, the AC50 under setting [1] was 23.1 µM [falling, single point]. Moreover, under setting [2], the AC50 is 20.6 µM [falling, single point].
